# Measurements taken from PubChem BioAssay AID2685 (National Center for Advancing Translational Sciences (NCATS), 2010).
# Some of the results follow. These are further read-outs of the screen, such as a control signal, another cell line or another target. No call is given for them. Most of these compounds were active or inconclusive in the main read-out, so they are no random draw. Words in brackets tell the shape of the fitted curve; partial curves, single points and poor fits give uncertain potencies.
# Assay: qHTS Assay for Lipid Storage Modulators in Drosophila S3 Cells;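 for cell number change: cells counted by Cell Tracker Red CMTPX staining in the red channel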
# Conditions: BODIPY lipid droplet fluorescence, 18-24 h; for cell number change: measured here: cell count max response, cells fed with added oleic acid
# How it was run: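 Laser-scanning cytometry quantifies lipid droplet accumulation (500–530 nm total intensity; droplet/cell object ratio) in oleic acid-fed (400 uM added) Drosophila S3 cells treated with a concentration series. 20 uM Triacsin C defined 100% inhibition.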
# [1] = measured here: cell number channel AC50, cells fed with added oleic acid
# [2] = measured here: lipid fluorescence (Fed channel) AC50, cells fed with added oleic acid
SMILES,AC50 [1],AC50 [2],cell number change
CCOc1cc(/C=N/NC(=O)c2cc(C3CC3)[nH]n2)ccc1O,"0.00461 µM [rising, full curve, poor fit]","0.00411 µM [rising, partial curve, poor fit]",–
COCC1CCCN(C(=O)c2cc(COc3cccc4cccnc34)on2)C1 (configuration not stated),–,"29.1 µM [falling, single point]",-2.35%
CCCCN(C(=O)CCC(=O)O)C1CC(=O)N(c2ccc(OCCC)cc2)C1=O (configuration not stated),"32.6 µM [falling, single point]",–,-35.1%
CC(C)(C)N(Cc1cc2ccccc2[nH]c1=O)C(=O)c1cccnc1,"0.259 µM [rising, full curve, poor fit]","0.291 µM [rising, partial curve, poor fit]",21%
O=C(NCCCN1CCCC1)c1ccc2c(c1)N(Cc1ccccc1F)C(=O)c1ccccc1S2(=O)=O,–,"16.4 µM [rising, partial curve]",–
COc1ccc(/C=N/NC(=O)CCSc2nc3ccccc3s2)cc1,–,"0.164 µM [rising, full curve, poor fit]",2.22%
C1=CC2C3C=CC(C3)C2C1 (configuration not stated),–,"0.517 µM [rising, single point]",-5.76%
Cc1ccc(C(=O)ONC(=O)c2ccc(Cl)cc2)cc1[N+](=O)[O-],–,–,20.6%
COc1ccc(NC(=S)N(CCN2CCOCC2)Cc2ccccc2F)cc1,"6.51 µM [falling, single point]",–,-12.3%
CCC(CCCO)CCC[C@H](C)CCC1OCCO1 (some centres not stated),–,"0.116 µM [falling, full curve, poor fit]",-11.6%
O=C(NCc1ccc(F)cc1)c1c(O)c2cccc3c2n(c1=O)CCC3,–,–,-1.59%
CCOC(=O)c1c(NC(=O)COC(=O)Cn2cnc3ccccc32)sc(C)c1C,–,"29.1 µM [rising, single point]",-20.4%
COc1ccc(CCNC(=S)Nc2ccc(C(C)C)cc2)cc1,–,"0.461 µM [falling, single point]",3.31%
Cc1ccc(N(C(C)C(=O)O)S(=O)(=O)c2c(C)[nH]c(=O)[nH]c2=O)cc1 (configuration not stated),–,"0.0116 µM [falling, single point]",0.921%
Nc1c(C(=O)NCc2ccco2)nnn1-c1ccccc1,–,–,-3.16%
Nc1nonc1-n1nnc(C(=O)N/N=C/c2ccc3c(c2)OCO3)c1-c1ccccc1,–,–,27.5%
Cn1nnc(NC(=O)c2cccc(F)c2)n1,–,"29.1 µM [falling, single point]",8.32%
COCCNC(=O)NC(=O)COC(=O)C1(c2ccc(Cl)cc2)CC1,–,"29.1 µM [rising, single point]",25.9%
S=C(Nc1ccccc1Cl)N1CCOCC1,–,"6.51 µM [falling, single point]",-9.31%
Cc1ccccc1Nc1nc(N)nc(COC(=O)c2cccn2C)n1,–,"6.51 µM [rising, single point]",-4.81%
COc1cccc(N2CC(=O)N(NC(=O)CSc3nc(C)cc(C)c3C#N)CC2=O)c1,–,"0.103 µM [rising, full curve, poor fit]",23.2%

SMILES,AC50 [1],AC50 [2],cell number change
CCOc1ccc(N2CC(C(=O)NCCc3c[nH]c4ccc(OC)cc34)CC2=O)cc1 (configuration not stated),–,–,2.78%
COc1cccc2cc(C(=O)NCc3ccco3)c(=O)oc12,–,"3.66 µM [rising, partial curve, poor fit]",20.6%
CCCCn1cc(S(=O)(=O)c2ccccc2)c(=O)c2cc(C)ccc21,–,"29.1 µM [rising, single point]",–
CCCn1c2ccccc2c2nnc(SCC(=O)Nc3c(C)n(C)n(-c4ccccc4)c3=O)nc21,–,–,0.781%
Cc1ccc(OCCC(=O)Nc2ccccc2C(=O)NC2CC2)cc1,–,–,13%
COc1cc(NC(=O)CN2CCC(Cc3ccccc3)CC2)c(C)cc1[N+](=O)[O-],"29.1 µM [falling, single point]","0.082 µM [falling, full curve, poor fit]",-32.3%
CCCc1ccc2oc(C(=O)NCCc3nc(C(=O)OCC)cs3)c(C)c2c1,–,–,-14.1%
CCN(c1ccccc1)S(=O)(=O)c1ccc(OC)c(NC(=O)Cc2ccccc2OC)c1,–,"0.92 µM [rising, partial curve]",-10.4%
Cc1ccc(S(=O)(=O)NC(C(=O)OCC(=O)NC(=O)c2cccn2C)C(C)C)cc1 (configuration not stated),"0.206 µM [falling, full curve, poor fit]","29.1 µM [falling, partial curve]",-34.1%
N#CCOc1nc(N2CCCCC2)nc(N2CCCCC2)n1,–,"0.82 µM [rising, full curve, poor fit]",–
Cc1cc(C(=O)CN2C(=O)C(=O)N(C)C2=O)c(C)n1-c1cccc(S(=O)(=O)N2CCOCC2)c1,–,–,-17.2%
CC1CCCCN1C(=O)COC(=O)c1ccc2c(c1)C(=O)N(Cc1ccco1)C2=O (configuration not stated),"29.1 µM [rising, single point]","0.82 µM [falling, full curve, poor fit]",30.8%
Cc1cccc(N2C(=O)SC(N(CC(=O)O)c3cccc(C)c3)C2=O)c1 (configuration not stated),"6.51 µM [falling, single point]",–,-38.5%
CCN(C(=O)c1cc(S(=O)(=O)N2CCCC2)ccc1C)C1CCS(=O)(=O)C1 (configuration not stated),–,"10.3 µM [falling, partial curve]",-10.5%
O=C(CCc1ccccc1)Nc1ccccc1C(F)(F)F,–,"6.51 µM [rising, partial curve]",30.8%
Cc1ccc(C2=NN(C(=O)CCC(=O)O)C(c3cn(-c4ccccc4)nc3-c3ccc(C)cc3)C2)cc1 (configuration not stated),"29.1 µM [falling, single point]","23.1 µM [falling, single point]",-38.6%
CCc1nc(SCC(=O)NNC(=O)c2ccc(C)cc2)c2ccccc2n1,–,"29.1 µM [rising, single point]",-4.76%
COC(=O)C1CC(c2ccc(Cl)cc2)=NO1 (configuration not stated),–,–,-65.9%
O=C(OCC(O)C(O)COC(=O)c1ccccc1)c1ccccc1 (configuration not stated),–,"5.17 µM [falling, single point]",-1.76%
O=C1CN(C(=O)NCC(=O)N[C@H](C(=O)O)c2ccccc2)c2ccccc2N1,"2.91 µM [rising, partial curve, poor fit]","0.731 µM [rising, single point]",-6.27%
CCOc1cc(/C=N/Nc2ncc(C)c(=O)[nH]2)ccc1O,–,"6.51 µM [rising, single point]",-1.8%

SMILES,AC50 [1],AC50 [2],cell number change
CCOC(=O)c1ccc(NC(=S)Nc2ccccc2)cc1,"0.82 µM [rising, full curve]","1.3 µM [rising, full curve]",–
Cc1c(NC(=O)COc2cccc(Br)c2)c(=O)n(-c2ccccc2)n1C,–,–,13.3%
Cc1ccccc1C(=O)NCCNC(=O)c1ccccn1,–,"6.51 µM [falling, single point]",3.81%
OCc1nc2ccccc2n1CCc1ccccc1,–,–,-15.2%
CC(=O)c1c(C)[nH]c(C(=O)OCc2ccc(Br)cc2)c1C,"1.46 µM [rising, full curve, poor fit]",–,43.4%
COc1ccccc1N1C(=O)C2C(C(=O)c3ccccc3)=NN(c3ccc(Br)cc3)C2C1=O (configuration not stated),–,–,53.1%
CNC(=S)N1CCC(c2nc3ccccc3s2)CC1,"29.1 µM [falling, single point]","29.1 µM [falling, single point]",-43.6%
Cc1ccc(CNC(=O)CCCOc2cc(=O)n(C)c3ccccc23)o1,"20.6 µM [rising, single point]",–,96.9%
COCCN1C(=O)C(=O)/C(=C(/O)c2cccc(S(=O)(=O)N(C)C)c2)C12C(=O)N(C)c1ccccc12 (configuration not stated),–,–,6.61%
O=C1N=C(N2CCOCC2)S/C1=C\c1ccc(-c2ccccc2Cl)o1,"10.3 µM [falling, partial curve]","1.16 µM [rising, full curve]",-31.8%
Cc1ccccc1N(C)C(=O)C1CCCN(c2ncnc3c2nc2n3CCCCC2)C1 (configuration not stated),–,–,18.5%
O=C(c1ccc(Cl)cc1)N1CCN(S(=O)(=O)/C=C/c2ccccc2)CC1,"0.00461 µM [falling, full curve, poor fit]","1.03 µM [rising, partial curve]",-7.39%
O=[N+]([O-])c1ccc(S(=O)(=O)c2ccccc2)nc1,"6.51 µM [falling, single point]","3.66 µM [falling, full curve]",-35.9%
CC1CCCC/C1=N\NS(=O)(=O)c1ccc(Br)cc1 (configuration not stated),–,"29.1 µM [falling, single point]",-15.4%
Cc1ccc(Cn2c(=N)c(C(=O)NCc3ccco3)cc3c(=O)n4ccccc4nc32)cc1,–,"29.1 µM [falling, single point]",-22.1%
O=C(Nc1ccccc1C(=O)O)c1ncn[nH]1,–,"5.8 µM [falling, single point]",9.3%
Cc1cccc(NC(=O)CN2CCN(CC(=O)Nc3ccc(-c4ccccc4)cc3)CC2)c1C,–,"2.06 µM [falling, full curve, poor fit]",3.85%
Cc1nc(-c2cccs2)sc1C(=O)NN,–,"29.1 µM [rising, single point]",19.2%
CCOC(=O)Cc1nnc(NC(=O)Nc2ccccc2)s1,–,–,1.47%
CC(NC(=O)C(=O)N1CCCCC1)C(c1cccs1)N1CCN(c2ccccc2)CC1 (configuration not stated),–,–,7.76%
COC(=O)c1cc(OC)c(OC)cc1NC(=O)Nc1ccccc1F,"1.03 µM [falling, partial curve]","6.51 µM [falling, partial curve]",-0.468%

# 5 entries already listed, arranged by length of the SMILES, low to high:
SMILES,AC50 [1],AC50 [2],cell number change
OCc1nc2ccccc2n1CCc1ccccc1,–,–,-15.2%
CCOC(=O)c1ccc(NC(=S)Nc2ccccc2)cc1,"0.82 µM [rising, full curve]","1.3 µM [rising, full curve]",–
Cc1ccc(CNC(=O)CCCOc2cc(=O)n(C)c3ccccc23)o1,"20.6 µM [rising, single point]",–,96.9%
CC(NC(=O)C(=O)N1CCCCC1)C(c1cccs1)N1CCN(c2ccccc2)CC1 (configuration not stated),–,–,7.76%
COCCN1C(=O)C(=O)/C(=C(/O)c2cccc(S(=O)(=O)N(C)C)c2)C12C(=O)N(C)c1ccccc12 (configuration not stated),–,–,6.61%
